Laboratory results: PubChem BioAssay AID1159578 (Peter MacCallum Cancer Centre, 2015)
In all, the deposit lists about 18,000 reagents; shown is a part drawn at random. About 1,030 of all reagents (5.7%) were called active. 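Inactive calls also include pools with fewer than 3300 nuclei, whose migration was not assessed.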 Raw values are not corrected between plates. Entries without a mark were called inactive. Reagent sequences are not shown.

Test: 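Knock-downs that alter how fast lymphatic endothelial cells migrate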 (primary screen)
Cell system: human lymphatic endothelial cells
Reagents: siRNA pool against human genes, 40 nM
Time to read-out: 48 h after transfection
Read-out: 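Cells stained with dye and imaged after a scratch; covered wound area and nuclei counted, duplicates averaged, migration set against mock wells and turned into a robust z-score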
Scale: migration robust z-score: higher = faster migration into the scratch; migration relative to mock: higher = more scratch area covered than mock; nuclei per well: higher = more cells in the well
Rule for the call: 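Migration changed when robust z exceeds 2 or falls below -2 and mean nuclei number is at least 3300; otherwise not called changed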
Meaning of the calls: active = migration changed; inactive = no migration change, or too few cells

gene | PubChem SID | migration robust z-score | migration class with cell-count check | migration relative to mock | nuclei per well, duplicate mean
PANK4 (pantothenate kinase 4 (inactive)) | SID255358521 | -0.39 | migration z between -2 and 2; enough cells | 0.73 | 5086
UBQLN3 (ubiquilin 3) | SID255357337 | 0.68 | migration z between -2 and 2; enough cells | 1.06 | 6072
ST6GALNAC5 (ST6 N-acetylgalactosaminide alpha-2,6-sialyltransferase 5) | SID255360962 | -0.24 | migration z between -2 and 2; enough cells | 0.76 | 6562
HYCC1 (hyccin PI4KA lipid kinase complex subunit 1) | SID255361455 | 0.52 | migration z between -2 and 2; enough cells | 1.01 | 7191
CFHR2 (complement factor H related 2) | SID255350176 | -1.48 | migration z between -2 and 2; enough cells | 0.5 | 5992
LY6K (lymphocyte antigen 6 family member K) | SID255358144 | 0.52 | migration z between -2 and 2; enough cells | 1.02 | 6192
ACOXL (acyl-CoA oxidase like) | SID255358572 | -0.57 | migration z between -2 and 2; enough cells | 0.7 | 4980
MTMR8 (myotubularin related protein 8) | SID255358719 | -1.55 | migration z between -2 and 2; enough cells | 0.5 | 4858
CHIA (chitinase acidic) | SID255356954 | 1.17 | migration z between -2 and 2; enough cells | 1.03 | 4310
OR56A3 (olfactory receptor family 56 subfamily A member 3) | SID255365610 | 1.22 | migration z between -2 and 2; enough cells | 1.2 | 7073
NPTX1 (neuronal pentraxin 1) | SID255351293 | -0.5 | migration z between -2 and 2; enough cells | 0.75 | 5377
ABCF3 (ATP binding cassette subfamily F member 3) | SID255358599 | -0.47 | migration z between -2 and 2; enough cells | 0.72 | 4682
TRIM33 (tripartite motif containing 33) | SID255357801 | -0.49 | migration z between -2 and 2; enough cells | 0.71 | 5076
LINGO2 (leucine rich repeat and Ig domain containing 2) | SID255363644 | 0.5 | migration z between -2 and 2; enough cells | 1.02 | 6232
ZW10 (zw10 kinetochore protein) | SID255354098 | -1.31 | migration z between -2 and 2; enough cells | 0.55 | 3834
HOXD9 (homeobox D9) | SID255350291 | -1.56 | migration z between -2 and 2; enough cells | 0.5 | 3520
C1QB (complement C1q B chain) | SID255348601 | 0.98 | migration z between -2 and 2; enough cells | 1.14 | 6158
SLC9B2 | SID255362943 | -2.89 (active) | migration z below -2; enough cells | 0.12 | 3699
PECR (peroxisomal trans-2-enoyl-CoA reductase) | SID255358893 | 0.94 | migration z between -2 and 2; enough cells | 0.98 | 4622
ASZ1 | SID255363019 | -0.83 | migration z between -2 and 2; enough cells | 0.67 | 5025
DNM1 (dynamin 1) | SID255349325 | -0.47 | migration z between -2 and 2; enough cells | 0.72 | 5086
MINAR1 (membrane integral NOTCH2 associated receptor 1) | SID255356106 | 0.92 | migration z between -2 and 2; enough cells | 1.12 | 4492
TPRX1 (tetrapeptide repeat homeobox 1) | SID255364770 | -1.13 | migration z between -2 and 2; enough cells | 0.6 | 6232
BBS9 (Bardet-Biedl syndrome 9) | SID255356987 | 0.21 | migration z between -2 and 2; enough cells | 0.93 | 5340
EFS (embryonal Fyn-associated substrate) | SID255354959 | -1.73 | migration z between -2 and 2; enough cells | 0.44 | 5510
GCH1 (GTP cyclohydrolase 1) | SID255349852 | 0.99 | migration z between -2 and 2; enough cells | 1 | 5586
ATP13A2 (ATPase cation transporting 13A2) | SID255356213 | 0.49 | migration z between -2 and 2; enough cells | 0.9 | 6815
SARAF (store-operated calcium entry associated regulatory factor) | SID255357847 | -0.9 | migration z between -2 and 2; enough cells | 0.65 | 4606
RCOR3 (REST corepressor 3) | SID255358837 | -0.67 | migration z between -2 and 2; enough cells | 0.71 | 5471
TENT5D (terminal nucleotidyltransferase 5D) | SID255363890 | 2.76 (active) | migration z above 2; enough cells | 1.6 | 5726
TTC36 (tetratricopeptide repeat domain 36) | SID255363202 | 0.09 | migration z between -2 and 2; enough cells | 0.92 | 5273
MT2A (metallothionein 2A) | SID255351053 | -1.5 | migration z between -2 and 2; enough cells | 0.5 | 5590
DNAJC28 (DnaJ heat shock protein family (Hsp40) member C28) | SID255358291 | 2.08 (active) | migration z above 2; enough cells | 1.42 | 5190
PRR34 (PRR34 long non-coding RNA) | SID255358551 | -1.93 | migration z between -2 and 2; enough cells | 0.38 | 4860
GAREM1 (GRB2 associated regulator of MAPK1 subtype 1) | SID255359981 | 2.85 (active) | migration z above 2; enough cells | 1.62 | 5954
MBP (myelin basic protein) | SID255350891 | -1.92 | migration z between -2 and 2; enough cells | 0.38 | 4368
PYHIN1 (pyrin and HIN domain family member 1) | SID255363424 | 0.12 | migration z between -2 and 2; enough cells | 0.92 | 5916
LRIG1 (leucine rich repeats and immunoglobulin like domains 1) | SID255356617 | 1.99 | migration z between -2 and 2; enough cells | 1.4 | 6117
RTL8B (retrotransposon Gag like 8B) | SID255365947 | 3.77 (active) | migration z above 2; enough cells | 1.86 | 7167

Reagents above marked active, once more:
gene | PubChem SID | migration robust z-score | migration class with cell-count check | migration relative to mock | nuclei per well, duplicate mean
SLC9B2 | SID255362943 | -2.89 (active) | migration z below -2; enough cells | 0.12 | 3699
TENT5D (terminal nucleotidyltransferase 5D) | SID255363890 | 2.76 (active) | migration z above 2; enough cells | 1.6 | 5726
DNAJC28 (DnaJ heat shock protein family (Hsp40) member C28) | SID255358291 | 2.08 (active) | migration z above 2; enough cells | 1.42 | 5190
GAREM1 (GRB2 associated regulator of MAPK1 subtype 1) | SID255359981 | 2.85 (active) | migration z above 2; enough cells | 1.62 | 5954
RTL8B (retrotransposon Gag like 8B) | SID255365947 | 3.77 (active) | migration z above 2; enough cells | 1.86 | 7167
